Test results from PubChem BioAssay AID1445 (SRMLSC, 2008).
About 910 (0.41%) of roughly 220,000 compounds were called active. The shares of active, inactive and inconclusive entries below differ from those in the screen.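 The calls were made as follows: active = primary inhibition above the hit cutoff, then over 50% inhibition at one or more dose response concentrations (cut at about 23% in these data, passing the limit was not always enough); inconclusive = conflicting primary data, or primary hits not chosen for dose response; inactive = low primary inhibition, or under 50% at every dose.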

Chains of the proteins cited; added tags and fusions are not shown. Lines headed by an entry give the natural chain unless they say otherwise; changes in a name come on top.
UniProt O96935: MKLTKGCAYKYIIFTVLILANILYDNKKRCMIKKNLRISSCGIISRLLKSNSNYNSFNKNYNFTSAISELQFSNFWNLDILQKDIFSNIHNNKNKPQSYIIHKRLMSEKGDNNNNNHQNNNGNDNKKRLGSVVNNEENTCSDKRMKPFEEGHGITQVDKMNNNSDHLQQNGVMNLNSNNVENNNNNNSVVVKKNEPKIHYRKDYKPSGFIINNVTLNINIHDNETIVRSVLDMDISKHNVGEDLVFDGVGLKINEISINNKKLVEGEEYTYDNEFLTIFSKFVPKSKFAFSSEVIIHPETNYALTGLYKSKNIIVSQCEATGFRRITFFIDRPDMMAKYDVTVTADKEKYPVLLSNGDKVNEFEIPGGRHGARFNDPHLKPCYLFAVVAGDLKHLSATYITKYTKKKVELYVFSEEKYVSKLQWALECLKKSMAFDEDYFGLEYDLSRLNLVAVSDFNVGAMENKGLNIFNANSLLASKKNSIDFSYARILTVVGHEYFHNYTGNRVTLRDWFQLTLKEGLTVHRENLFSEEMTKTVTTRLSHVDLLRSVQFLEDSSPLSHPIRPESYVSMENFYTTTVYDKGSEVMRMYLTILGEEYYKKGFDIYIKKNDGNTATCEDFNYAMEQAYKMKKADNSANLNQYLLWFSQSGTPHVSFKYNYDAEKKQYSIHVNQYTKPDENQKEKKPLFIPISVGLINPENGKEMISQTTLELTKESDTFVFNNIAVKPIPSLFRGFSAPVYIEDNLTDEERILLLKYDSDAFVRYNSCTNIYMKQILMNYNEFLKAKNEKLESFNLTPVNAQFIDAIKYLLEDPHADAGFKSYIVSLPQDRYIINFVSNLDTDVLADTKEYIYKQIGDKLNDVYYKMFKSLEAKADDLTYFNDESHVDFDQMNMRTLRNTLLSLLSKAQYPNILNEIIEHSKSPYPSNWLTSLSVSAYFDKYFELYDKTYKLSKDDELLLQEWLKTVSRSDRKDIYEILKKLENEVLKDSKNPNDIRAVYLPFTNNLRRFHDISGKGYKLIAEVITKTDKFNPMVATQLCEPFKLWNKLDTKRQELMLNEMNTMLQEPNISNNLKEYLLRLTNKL

These compounds were tested against Aminopeptidase N (Plasmodium falciparum (isolate 3D7)) (UniProt O96935) (assay: P. falciparum M1AAP inhibitors, biochemical, fluorogenic H-Leu-NHMec substrate, 1536-well (AID 1445;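 also: plate controls were DMSO full reaction for no effect and no enzyme background for full effect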)). Settings: recombinant M1AAP, H-Leu-NHMec fluorogenic kinetic assay; at 30 µM, active compounds read high unless noted.
In the case of `Cc1cc(NS(=O)(=O)c2ccc(Nc3nc(-c4sc(C)nc4C)cs3)cc2)no1`, the inhibition is reported as active: 23.9%. For `CCOc1cc(CNc2ccc(O)cc2)cc(Br)c1OCc1ccccc1F`, the inhibition was active: 25.5%. For `Cc1cccc(C(=O)Nc2nnc(SCC(=O)Nc3ccc4c(c3)oc3ccccc34)s2)c1`, the inhibition was inconclusive: 24%. For `O=C(O)c1cccc(N/N=C/c2cc(Br)cc(Br)c2O)c1`, the inhibition was inconclusive: 23.9%. With `O=C1CCn2nc(-c3ccc(Cl)cc3)cc2N1` the inhibition was inactive: 0.78%. For `Cc1ccc2[nH]c(=O)c(CN(Cc3ccco3)S(=O)(=O)c3c(C)ccc4nsnc34)cc2c1`, the inhibition was active: 24.1%. For `COc1cc(C2c3c(-c4cc(C)cc(C)c4O)n[nH]c3C(=O)N2CCCO)cc(OC)c1OC` (centres undefined), the inhibition was active: 28.3%. For `Cc1nn(CCOc2ccc(Br)cc2)c(C)c1[N+](=O)[O-]`, the inhibition was inconclusive: 25.6%. For `COc1ccc(CN2C(=O)/C(=C/c3ccc(-c4ccc(Cl)c(C(=O)O)c4)o3)SC2=S)cc1`, the inhibition was inconclusive: 36.5%. For `CCN1CC=C2C(C#N)=C(N)C(C#N)(C#N)C(c3cc(Cl)ccc3Cl)C2C1` (centres undefined), the inhibition was inconclusive: 27.3%. With `CCOC(=O)C(=O)c1c(-c2ccc(C)cc2)nc2ccccn12` the inhibition was inactive: 10.6%. `O=C(O)c1ccccc1N/N=C/c1cc(Br)cc(Br)c1O` was tested, and the inhibition was inactive: 17.7%. `CN1CC2=Cc3ccccc3OC23Oc2ccccc2C=C3C1` was tested, and the inhibition was inconclusive: 30.5%. `O=C1S/C(=C\c2ccc(O)c([N+](=O)[O-])c2)C(=O)N1c1ccccc1Cl` was tested, and the inhibition was inconclusive: 24.1%. With `Cc1sc(NC(=O)CSc2nnc(-c3ccccc3)o2)c(C#N)c1C` the inhibition was active: 25%. For `CCOc1cccc2cc(C(=O)Nc3ccccc3-c3ccccc3)c(=O)oc12`, the inhibition was inactive: 1.66%. `COc1cc([N+](=O)[O-])cc(/C=N/NC(=O)CSc2nnc(-c3ccccc3)n2C)c1O` was tested, and the inhibition was inconclusive: 25.5%. For `CCOC(=O)C(C(=O)Nc1ccccn1)C1CCCCC1` (centres undefined), the inhibition was inconclusive: 25%. `CSC1=NSC2=NC(=O)/C(=C\c3coc4ccccc4c3=O)C(=N)N12` was tested, and the inhibition was inconclusive: 31.7%. In the case of `O=C(CSc1nc2c(c(=O)n1-c1ccc(Cl)cc1)SCC2)Nc1nccs1`, the inhibition is reported as inconclusive: 24.3%. In the case of `Cc1cc(C)c2c(CC(=O)O)c(C)[nH]c2c1`, the inhibition is reported as inconclusive: 26.3%. In the case of `O=C(NC(=S)NN1CCCCC1c1cccnc1)c1ccc(Br)cc1` (centres undefined), the inhibition is reported as inconclusive: 25%. With `CCCn1c(C)cc(/C=C(\C#N)C(=O)OCC(=O)NC(=O)NCC)c1C` the inhibition was inactive: 8.1%. For `Cn1c(SCC(=O)N2CCCc3ccccc32)nc2ccccc2c1=O`, the inhibition was inconclusive: 28.3%. `Cc1cccc(-c2c3c(=O)n(C)c(=O)n(C)c3cn2-c2ccccc2O)c1` was tested, and the inhibition was inconclusive: 23.3%. In the case of `Cc1cc(=O)oc2c(CN3CC(C)OC(C)C3)c(O)c(Cl)cc12` (centres undefined), the inhibition is reported as inconclusive: 24.1%. For `O=C(NCc1cccs1)C1CCN(S(=O)(=O)N2CCCC2)CC1`, the inhibition was inactive: 4.08%. With `CCCc1cc(=O)oc2c(CN3CCCC3)c(O)ccc12` the inhibition was inconclusive: 23.7%. In the case of `COc1cccc(NC(=O)C2CCN(S(=O)(=O)c3ccc4c(c3)OCCO4)CC2)c1`, the inhibition is reported as active: 43%. For `COC(=O)C1=C(N)Oc2cc(C)n(CCCn3ccnc3)c(=O)c2C1c1ccc(Cl)cc1` (centres undefined), the inhibition was active: 27.9%. `c1cnc2ccc(C(c3nnnn3C3CCCC3)N3CCN(c4nc5ccccc5s4)CC3)cc2c1` (centres undefined) was tested, and the inhibition was inconclusive: 22.6%. With `Cc1ccc2cc(CN(Cc3ccco3)S(=O)(=O)c3c(C)ccc4nsnc34)c(=O)[nH]c2c1` the inhibition was inactive: 8.06%. For `CC1(C)CC(=O)C(/C=N/n2cnc3ccccc3c2=O)=C(O)C1`, the inhibition was inactive: 11.3%. In the case of `NC(=O)CC[C@@H]1NC(=O)[C@H](Cc2ccc(O)cc2)NC(=O)c2cc([N+](=O)[O-])cc(F)c2OCC[C@@H](C(N)=O)NC1=O`, the inhibition is reported as inconclusive: 58.3%. For `CN1C(=O)C(C(=O)NC(C)(C)C)C2c3ccccc3OC13CCCCC23` (centres undefined), the inhibition was active: 24.3%. For `Cc1onc(-c2ccccc2)c1C(=O)N1CCCN2C(=O)c3ccccc3C21` (centres undefined), the inhibition was inconclusive: 26.8%. For `CCC(C)NC(=O)C1CCN(S(=O)(=O)c2ccc(OC)cc2)CC1` (centres undefined), the inhibition was inactive: 4.22%. For `COc1ccc(-c2nc(CSCC(=O)N3CCN(c4cccc(C)c4)C(C)C3)c(C)o2)cc1OC` (centres undefined), the inhibition was active: 23.8%. With `O=C(NC1CCCCC1)c1sc(=S)n2c1[nH]c(=O)c1ccccc12` the inhibition was inactive: 0.76%. For `CCN(CC)Cc1c(O)c(Cl)cc2c(C)c(C)c(=O)oc12`, the inhibition was active: 23.6%. `O=C(O)CCn1cc(C2CC(c3ccccc3)=NN2c2ccccc2)c(-c2ccccc2)n1` (centres undefined) was tested, and the inhibition was inconclusive: 26.3%. For `CC(C)CSC1=NSC2=NC(=O)/C(=C\c3ccccc3)C(=N)N12`, the inhibition was inactive: -10%. In the case of `Nc1ccc(-c2cnc[nH]2)cc1[N+](=O)[O-]`, the inhibition is reported as inconclusive: 25.9%. With `COc1ccc(OC)c(-n2c(SCC(=O)NCc3ccco3)nnc2-c2c[nH]c3ccccc23)c1` the inhibition was active: 24.5%. For `Cc1ccc(C2=NNC(=O)C(c3c[nH]c4ccccc34)C2)cc1` (centres undefined), the inhibition was inactive: 1.55%. `COc1cc(/C=C2/S/C(=N/S(=O)(=O)Cc3ccccc3)NC2=O)c([N+](=O)[O-])cc1OC` was tested, and the inhibition was inconclusive: 23.4%. In the case of `Cc1ccccc1NC(=O)CSc1nnc(-c2ccoc2C)n1CCc1ccccc1`, the inhibition is reported as inactive: 8.39%. In the case of `C=CCNc1oc(/C=C/c2ccccc2)nc1C#N`, the inhibition is reported as inconclusive: 26.5%. In the case of `CC(=O)Nc1nc(NC(=O)C(Cl)(Cl)Cl)n(-c2ccccc2)n1`, the inhibition is reported as inconclusive: 23.3%. For `Cc1ccc(-n2c(=O)cc(N3CCc4ccccc4C3)[nH]c2=O)cc1`, the inhibition was inactive: 3.06%. For `Cc1c(C)c2cc(Cl)c(O)c(CN3CCN(C)CC3)c2oc1=O`, the inhibition was inconclusive: 43.4%. `COc1cc(/C=C2\S/C(=N/S(=O)(=O)c3ccc(C)cc3)NC2=O)c([N+](=O)[O-])cc1OC` was tested, and the inhibition was inconclusive: 87.9%. With `CC(=O)Nc1ccccc1-c1nc2ccc(C(=O)N3CCN(c4cc(C)ccc4C)CC3)cc2[nH]c1=O` the inhibition was inactive: 4.66%. With `Cc1oc2c(CN3CCOCC3)c(O)ccc2c(=O)c1-c1ccc(Cl)cc1` the inhibition was inactive: 7.87%.
